{"sequences": {"note": "Amino acid sequences for entries named in this document (tags omitted).", "UniProt P07949, whole entry M918T, looked up": "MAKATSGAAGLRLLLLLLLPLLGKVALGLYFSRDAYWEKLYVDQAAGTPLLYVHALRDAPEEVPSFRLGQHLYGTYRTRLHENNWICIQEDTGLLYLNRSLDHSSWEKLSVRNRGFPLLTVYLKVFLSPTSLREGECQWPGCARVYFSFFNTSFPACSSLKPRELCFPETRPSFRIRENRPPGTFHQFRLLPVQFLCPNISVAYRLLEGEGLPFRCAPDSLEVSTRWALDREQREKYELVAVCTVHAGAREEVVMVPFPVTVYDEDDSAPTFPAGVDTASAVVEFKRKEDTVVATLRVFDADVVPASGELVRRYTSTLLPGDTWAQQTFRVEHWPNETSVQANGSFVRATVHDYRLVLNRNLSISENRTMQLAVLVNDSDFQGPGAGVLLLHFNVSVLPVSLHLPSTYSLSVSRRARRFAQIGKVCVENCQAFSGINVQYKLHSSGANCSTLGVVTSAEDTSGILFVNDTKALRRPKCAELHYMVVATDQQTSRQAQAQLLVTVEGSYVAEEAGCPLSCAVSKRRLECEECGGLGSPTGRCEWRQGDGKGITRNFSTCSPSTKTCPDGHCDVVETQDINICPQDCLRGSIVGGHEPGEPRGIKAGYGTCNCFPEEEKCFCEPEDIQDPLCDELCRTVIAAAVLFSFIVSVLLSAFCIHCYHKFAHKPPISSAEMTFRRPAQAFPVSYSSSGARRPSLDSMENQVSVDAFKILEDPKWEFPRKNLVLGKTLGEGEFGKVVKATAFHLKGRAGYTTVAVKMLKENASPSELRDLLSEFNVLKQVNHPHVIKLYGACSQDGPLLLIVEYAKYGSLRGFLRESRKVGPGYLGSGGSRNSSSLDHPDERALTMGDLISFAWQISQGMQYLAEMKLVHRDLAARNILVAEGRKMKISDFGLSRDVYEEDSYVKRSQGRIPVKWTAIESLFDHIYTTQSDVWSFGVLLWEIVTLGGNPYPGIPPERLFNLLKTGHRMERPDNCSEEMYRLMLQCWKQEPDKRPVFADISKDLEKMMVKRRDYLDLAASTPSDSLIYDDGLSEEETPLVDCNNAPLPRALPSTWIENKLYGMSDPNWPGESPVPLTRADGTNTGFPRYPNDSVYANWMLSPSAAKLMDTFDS"}, "source": "the supplement of paper PMC12823440", "about": "“Inhibitors supercharge kinase turnover through native proteolytic circuits” (Nature, 2025)", "note": "Counter-ions that a name gives are not always drawn. This is one part of the list. Hit calls seldom repeat between salt and free forms of one compound.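 Kinases, fused to nanoluciferase, were expressed in K562 cells; luminescence was measured every 4 h from 2 to 18 h as percent of control (DMSO = 100%, positive control = 0%). A time point is decreased if signal falls significantly (2 sigma). Hits were called by the authors by a rule that is not shown; the count of time points alone does not decide it.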"}
{"target": "RET_M918T (clone: RET_mut) (UniProt P07949)", "assay": "number of time points (of 5) at which kinase-Nluc abundance scored as decreased, DMSO-normalised (count); higher = more persistent destabilization", "details": "K562; 2-18 h"}
{"smiles": "C[C@@H](c1ccc2nccn2c1)n1nnc2ncc(-c3cnn(C)c3)nc21", "note": "[Savolitinib] (10 µM)", "number of time points": 0}
{"smiles": "CN1C(=O)C(Cc2c[nH]c3ccccc23)NC1=S", "note": "(stereo not drawn) [Necrostatin-1] (10 µM)", "number of time points": 0}
{"smiles": "C[C@@H]1C(=O)O[C@H](C)[C@H]1C[C@@H](O)[C@](C)(O)[C@H]1CC[C@@]2(O)C3=CC(=O)[C@@H]4C[C@@H](O)[C@@H](O)C[C@]4(C)[C@H]3CC[C@]12C", "note": "[Cyasterone] (10 µM)", "number of time points": 0}
{"smiles": "CC(c1ccc(-c2cnc3c(-c4ccc(S(N)(=O)=O)c5ccccc45)cnn3c2)cc1)N1CCCC1", "note": "(stereo not drawn) (2.5 µM)", "number of time points": 0}
{"smiles": "CCn1c(=O)c(-c2ccc(-c3cncc(C)n3)cc2Cl)cc2cnc(NCCC3CCN(C)CC3)nc21", "note": "(10 µM)", "number of time points": 0}
{"smiles": "O=C(O)c1cc(O)ccc1O", "note": "[2,5-Dihydroxybenzoic acid] (10 µM)", "number of time points": 0}
{"smiles": "CC(=NNC(=O)c1ccc(C)c(Br)c1)c1ccc(O)cc1O", "note": "[mTOR inhibitor-1] (2.5 µM)", "number of time points": 0}
{"smiles": "Nc1ncnc2c1ncn2[C@@H]1O[C@H](CO)C[C@H]1O", "note": "[Cordycepin] (10 µM)", "number of time points": 0}
{"smiles": "C=CC(=O)Nc1cc2c(Nc3ccc(OCc4ccccn4)c(Cl)c3)ncnc2cc1OCCN1CCOCC1", "note": "(10 µM)", "number of time points": 0}
{"smiles": "Cc1ccc(S(=O)(=O)Nc2ccccc2C=Nc2ccccc2NS(=O)(=O)c2ccc(C)cc2)cc1", "note": "(10 µM)", "number of time points": 0}
{"smiles": "CCOc1cc(C(=O)N2CCC(N3CCN(C)CC3)CC2)ccc1Nc1ncc2c(n1)N(C1CCCC1)c1ccccc1C(=O)N2C", "note": "(10 µM)", "number of time points": 0}
{"smiles": "Cn1cnc(-c2cc3nccc(Oc4ccc(NC(=S)NC(=O)Cc5ccccc5)cc4F)c3s2)c1", "note": "[MGCD-265 analog] (10 µM)", "number of time points": 0}
{"smiles": "Cn1c(=O)c(F)c(Nc2ccc(I)cc2F)c2c(=O)n(C[C@@H](O)CO)cnc21", "note": "(10 µM)", "number of time points": 0}
{"smiles": "Nc1ncnc2c1c(-c1ccc(Oc3ccccc3)cc1)nn2C1CCNCC1", "note": "[N-piperidine Ibrutinib (hydrochloride)] (10 µM)", "number of time points": 0}
{"smiles": "Cc1csc(-c2nnc(Nc3ccc(Oc4ncccc4-c4ccnc(N)n4)cc3)c3ccccc23)c1", "note": "(2.5 µM)", "number of time points": 0}
{"smiles": "O=C(O)CCc1ccc(O)c(O)c1", "note": "[Dihydrocaffeic acid] (10 µM)", "number of time points": 0}
{"smiles": "COCCOc1cnc(Sc2cc(C)c(-c3csc(NC(=O)c4ccncc4)n3)c(C)c2)cn1", "note": "[T-1101 (tosylate)] (2.5 µM)", "number of time points": 2}
{"smiles": "Cc1cc(NC(=O)c2cccc(NC(=O)/C=C/CN(C)C)c2)ccc1Nc1nccc(-c2cccnc2)n1", "note": "(10 µM)", "number of time points": 0}
{"smiles": "Cc1c(NC(=O)OC[C@@H]2COCCN2)cn2ncnc(Nc3ccc4c(cnn4Cc4cccc(F)c4)c3)c12", "note": "(10 µM)", "number of time points": 0}
{"smiles": "Cc1ccc(-c2c(C(=O)CF)n(CCCO)c3ncnc(N)c23)cc1", "note": "(10 µM)", "number of time points": 0}
{"smiles": "Cc1ccc(-c2c(C(=O)CCl)n(CCCO)c3ncnc(N)c23)cc1", "note": "(10 µM)", "number of time points": 4}
{"smiles": "COc1cc(F)c(F)c(Nc2ccc(I)cc2F)c1NS(=O)(=O)C1(C[C@H](O)CO)CC1", "note": "[Refametinib] (10 µM)", "number of time points": 0}
{"smiles": "CCN(CC)c1ccc2cc(C(=O)N3CCN(C(=O)C4=Cc5c(Br)cccc5S4(=O)=O)CC3)c(=O)oc2c1", "note": "(2 µM)", "number of time points": 0}
{"smiles": "COc1ccc(C(=C2C(=O)Nc3ccccc32)c2ccc(OC)cc2)cc1", "note": "(10 µM)", "number of time points": 1}
{"smiles": "N#Cc1ccc2ncnc(NC3CCC(N4CCOCC4)CC3)c2c1", "note": "(stereo not drawn) (10 µM)", "number of time points": 0}
{"smiles": "NCCN1CCN(C/C=C/C(=O)N2CCC[C@@H](n3nc(-c4ccc(Oc5ccccc5)cc4)c4c(N)ncnc43)C2)CC1", "note": "[Ibrutinib-MPEA] (10 µM)", "number of time points": 0}
{"smiles": "CN(CC(=O)N(Cc1ccc(C2CCCCC2)cc1)c1ccc(C(=O)O)cc1)S(=O)(=O)c1c(F)c(F)c(F)c(F)c1F", "note": "(2.5 µM)", "number of time points": 0}
{"smiles": "CCn1c(C(=O)N(C2CC2)C2CC2)cc2c3c(ncn3C)c(Nc3cc(C)n(C)n3)nc21", "note": "(10 µM)", "number of time points": 0}
{"smiles": "CC(C)CN(CC(=O)N1CCN(CC(OCc2ccc3ccccc3c2)c2ccc(Cl)cc2Cl)CC1)CC(C)C", "note": "(stereo not drawn) [LYN-1604 (dihydrochloride)] (2.5 µM)", "number of time points": 0}
{"smiles": "COc1ccc2[nH]cc(/C=C3\\C(=O)Nc4ccc(NC(=O)CCN5CCCCC5)cc43)c2c1", "note": "(2.5 µM)", "number of time points": 0}
{"smiles": "CC(C)=CC(=O)CCC(=O)N1CCN(Cc2cc3nc(-c4cccc5[nH]ncc45)nc(N4CCOCC4)c3s2)CC1", "note": "(10 µM)", "number of time points": 0}
{"smiles": "O=C(NCCO)c1ccc2c(c1)nc(Nc1cccc(Cl)c1)c1ccncc12", "note": "[CK2 inhibitor 2] (10 µM)", "number of time points": 0}
{"smiles": "COc1ccc(CC(=O)Nc2nc3c(s2)CCc2ccccc2-3)cc1OC", "note": "(10 µM)", "number of time points": 0}
{"smiles": "c1cc2c(cc1O[C@H]1OC[C@H]3[C@@H]1CO[C@@H]3c1ccc3c(c1)OCO3)OCO2", "note": "[Sesamolin] (10 µM)", "number of time points": 0}
{"smiles": "OCCNC1CCCc2c1[nH]c1ccc(-c3ccccc3)cc21", "note": "(stereo not drawn) (2.5 µM)", "number of time points": 0}
{"smiles": "CNc1nc(Nc2cnn(C3CCN(C4COC4)CC3F)c2Cl)ncc1C(F)(F)F", "note": "(stereo not drawn) (10 µM)", "number of time points": 0}
{"smiles": "Cc1cc2cc(Nc3ccnc(Nc4ccc5[nH]c(C)cc5c4)n3)ccc2[nH]1", "note": "(2.5 µM)", "number of time points": 0}
{"smiles": "CC(C)(C)NC(=O)c1cncn1C1CCN(c2ccc(-c3nnc(C(F)(F)F)o3)cn2)CC1", "note": "(10 µM)", "number of time points": 0}
